Some entries share one result that the patent states for a list of compounds.
Key:
[1] = system: RABV (SPBN); type: cell-based, rabies virus
[2] = system: LFV Z VLPs; type: cell-based, Lassa fever virus (LFV); conditions: 1.0 μM
[3] = system: VSV-WT; type: cell-based, vesicular stomatitis virus (Indiana strain); conditions: 0.1 μM

| Compound | inhibition of egress of live RABV [1] [log] | inhibition of egress of LFV Z VLPs [2] [fold] | inhibition of egress of VSV-WT [3] [fold] |
| --- | --- | --- | --- |
| Cc1nc2ccccc2nc1SCC(=O)NC(=O)Nc1ccccc1 [Compound 5, 2-((3-methylquinoxalin-2-yl)thio)-N-(phenylcarbamoyl)acetamide] | > 1 | > 10 | > 2 |
| Cc1nn(-c2ccccc2)c(C)c1NC(=O)CN1CCCC(c2nc3ccccc3s2)C1 (stereo not drawn) [Compound 4, 2-(3-(benzo[d]thiazol-2-yl)piperidin-1-yl)-N-(3,5-dimethyl-1-phenyl-1H-pyrazol-4-yl)acetamide] | > 1 | > 10 | > 2 |

— patent US10160756B2 (priority 2014, dated 2018)
